Assay results: article PMC5915078

Protein sequences, listed by entry. Tags and fused reporters are not part of them. Residues count along the entry.
UniProt Q15717, whole entry: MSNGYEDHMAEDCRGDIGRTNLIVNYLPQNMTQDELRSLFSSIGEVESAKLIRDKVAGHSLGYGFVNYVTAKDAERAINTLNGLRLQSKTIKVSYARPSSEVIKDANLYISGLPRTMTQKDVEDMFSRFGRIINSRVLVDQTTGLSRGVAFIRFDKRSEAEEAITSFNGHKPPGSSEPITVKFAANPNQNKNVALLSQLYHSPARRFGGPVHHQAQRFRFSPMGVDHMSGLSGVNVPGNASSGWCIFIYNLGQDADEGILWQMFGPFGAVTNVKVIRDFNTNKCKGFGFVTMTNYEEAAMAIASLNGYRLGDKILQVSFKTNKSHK
UniProt Q15717, 106-243: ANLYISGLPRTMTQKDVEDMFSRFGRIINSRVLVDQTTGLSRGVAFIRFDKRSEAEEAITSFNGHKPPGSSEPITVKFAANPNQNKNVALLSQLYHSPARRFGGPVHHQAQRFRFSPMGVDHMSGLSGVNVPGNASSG
UniProt Q15717, 187-322: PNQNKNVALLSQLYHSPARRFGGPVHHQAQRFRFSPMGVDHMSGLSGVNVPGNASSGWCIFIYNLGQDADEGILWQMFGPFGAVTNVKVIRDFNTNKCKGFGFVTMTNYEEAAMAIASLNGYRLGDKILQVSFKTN
UniProt Q15717, 106-186: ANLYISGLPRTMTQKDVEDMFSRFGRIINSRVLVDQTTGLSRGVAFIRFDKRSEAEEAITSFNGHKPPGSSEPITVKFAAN
UniProt Q15717, 20-98: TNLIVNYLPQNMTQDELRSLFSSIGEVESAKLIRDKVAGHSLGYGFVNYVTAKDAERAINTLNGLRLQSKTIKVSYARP

Key:
Assay in all cases: EMSA
[1] = target: GST-HuR wild type (UniProt Q15717); details: EMSA: 10 mM HEPES pH 7.6, 3 mM MgCl2, 40 mM KCl, 2 mM DTT, 5% glycerol, 0.5% Igepal, 30 min on ice, 6% native PAGE in TBE, recombinant protein, label: 32P-UTP body label, probe letters rebuilt from the primers and the genome, part of a longer molecule
[2] = target: GST-HuR-RRM2+hinge (UniProt Q15717); details: 1.0 ug protein; EMSA: 10 mM HEPES pH 7.6, 3 mM MgCl2, 40 mM KCl, 2 mM DTT, 5% glycerol, 0.5% Igepal, 30 min on ice, 6% native PAGE in TBE; recombinant protein; protein details: GST; label: 32P-UTP body label; probe letters rebuilt from the primers and the genome; part of a longer molecule
[3] = target: GST-HuR-RRM3+hinge (UniProt Q15717); details: 1.0 ug protein; EMSA: 10 mM HEPES pH 7.6, 3 mM MgCl2, 40 mM KCl, 2 mM DTT, 5% glycerol, 0.5% Igepal, 30 min on ice, 6% native PAGE in TBE; recombinant protein; protein details: GST; label: 32P-UTP body label; probe letters rebuilt from the primers and the genome; part of a longer molecule
[4] = target: GST-HuR-RRM2 (UniProt Q15717); details: 1.0 ug protein; EMSA: 10 mM HEPES pH 7.6, 3 mM MgCl2, 40 mM KCl, 2 mM DTT, 5% glycerol, 0.5% Igepal, 30 min on ice, 6% native PAGE in TBE; recombinant protein; protein details: GST; label: 32P-UTP body label; probe letters rebuilt from the primers and the genome; part of a longer molecule
[5] = target: GST-HuR-RRM1 (UniProt Q15717); details: 1.0 ug protein; EMSA: 10 mM HEPES pH 7.6, 3 mM MgCl2, 40 mM KCl, 2 mM DTT, 5% glycerol, 0.5% Igepal, 30 min on ice, 6% native PAGE in TBE; recombinant protein; protein details: GST; label: 32P-UTP body label; probe letters rebuilt from the primers and the genome; part of a longer molecule

Sequence | binding result [1] | binding result ([1]; strongest binding, non-denatured RNA) | binding result [2] | binding result [3] | binding result [4] | binding result [5]
CUUUUGUCUGUCCGCCGAGCACCCCACUUCACCCCAUUGGACCGCGCGGCCGCCGCUAGAGCUCUGCGCCUGCGCACGCACCGGGCCGGGGACUGGGUGGCCUGGUGUGUGGGCGCGGCAGGGCGCAGGCGCAGGCGCAGUGUGCGUCCGC [caspase-2 5'UTR F1] | no binding | – | – | – | – | –
GGGCGCAGGCGCAGGCGCAGUGUGCGUCCGCGUCUGAGGGGAGGGAUGUGGGGGAAGCGACGGCCCCCGGUUUGUUUGGGCUGUGGGCGGUGCGCAGCGGAGAGCCCGGGAAAAGCGGGAA [caspase-2 5'UTR F2] | – | binds | binds | binds more weakly | no binding | no binding

Construct, isoform or probe ends are uncertain for at least one entry. For part of these data: A negative result means that nothing was seen under these conditions. For part of these data: The comparison behind a weaker result is the experiment's own reference, which may not be listed here.
